Data from patent publication US20100303896A1, “5BETA, 14BETA-ANDROSTANE DERIVATIVES USEFUL FOR THE TREATMENT OF RESTENOSIS AFTER ANGIOPLASTIC OR ENDOARTHERECTOMY AND DISEASES DUE TO ORGAN FIBROSIS” (SIGMA-TAU INDUSTRIE FARMACEUTICHE RIUNITE S.P.A., priority 2007, published 2010).

Tested on: MHS rats with CCl4-induced liver fibrosis
Experiment: CCl4-induced liver fibrosis: body and organ weights
Type: in vivo, rat
Settings: RLF group, 1 mg/kg os for 10 weeks + CCl4
Excerpt: To test the activity of the compound of the invention for the prevention and treatment of organ fibrosis, spontaneous hypertensive MHS rats with genetic arterial hypertension (Bianchi G., Barber B. R., Torielli L., Ferrari P. The Milan hypertensive strain of rats. Genetic Model of Hypertension. 1994; 22: 457-460) were used. MHS rats are available at Prassis Research Institute, Sigma-tau, Italy.
Liver fibrosis was induced by CCl4 oral administration as described in J. Hepatol. 1999; 30: 621-631, with minor modifications: 0.375 ml/kg of CCl4 dissolved in olive oil was administered three times per week for three weeks by oral gavage to rats starting from the 7th week after weaning. Control rats received only the vehicle (olive oil). Rostafuroxin treatment started 7 weeks before the induction of liver fibrosis by CCl4 administration (pretreatment) and was continued during the CCl4 treatment for three weeks. Rostafuroxin was orally administered at 1 mg/kg/day, suspended in Methocel (0.5%). […]

## C[C@]12CC[C@H](O)C[C@H]1CC[C@@H]1[C@@H]2CC[C@]2(C)[C@@](O)(c3ccoc3)CC[C@]12O [Rostafuroxin, 17 beta-(3-Furyl)-5 beta-androstane-3beta, 14 beta, 17 alpha-triol]
Group mean (n=8), Ctr. LF mean 349.4
  BW, mean: 353 g
Individual rats, 1 mg/kg
  BW: 347 g and 364 g and 366 g and 344 g (2×) and 333 g and 381 g and 345 g

Where “and” joins values, the source holds several entries; their conditions need not be identical. Equal entries are not always repeated.
